US6630490B2, “Methods for treatment of disease-induced peripheral neuropathy and related conditions” (NeoTherapeutics, Inc., priority 2000, dated 2003)

Test: General physiology (plasma glucose, body weight) in streptozotocin-diabetic rats
Assay type: in vivo, rat
Settings: control or diabetic rats, end of study

## O=C(CCn1cnc2c(=O)[nH]cnc21)Nc1ccc(C(=O)O)cc1 [AIT-082, N-4-carboxyphenyl-3-(6-oxohydropurin-9-yl) propanamide]
  plasma glucose levels: did not affect
